Assay results taken from PubChem BioAssay AID504444 (National Center for Advancing Translational Sciences (NCATS), 2011).
Among all 360,000 compounds or so, about 7,500 (2.1%) were called active. The inconclusive results got no clear call from the source; some entries with a clear call stand among them for comparison. Calls come from the whole dose curve; as a rule, active = well fitted inhibition curve with a large enough effect; inconclusive = small, poorly fitted or top-dose-only effect, or effect the other way; inactive = flat fitted curve, though single readings scatter. A potency beside an inconclusive call is a rough fit, not a confirmed value.

Assay: Nrf2 qHTS screen for inhibitors; note: nearly all actives have a fitted effect of over 60% in size
Conditions: A549 ARE-Fluc reporter, luciferase luminescence, 18-24 h; series mostly up to 46 µM
How it was run: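 In this cell-based qHTS, ARE-driven firefly luciferase in A549 cells reports Nrf2 activity; the luminescent signal after BugLite lysis is the measured value, with a prior CellTiter-Fluor read for cell health.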
Potency is the fitted concentration of half-maximal effect.

Structure (SMILES)	Potency
O=S(=O)(c1ccc2ncccc2c1)N1CCN(c2nc(-c3cccs3)nc3ccccc23)CC1	inconclusive: 10.3 µM [falling, partial curve]
C=CCn1c(SCC(=O)c2cccs2)nc2sc(CC)cc2c1=O	inconclusive: 32.6 µM [falling, single point]
Cc1nn2c(NCCN3CCOCC3)c3c(nc2c1-c1ccccc1)CCCC3	inactive
C/C(=N\NC(=O)CSCc1ccc([N+](=O)[O-])cc1)c1cccc(Br)c1	active: 23.1 µM
Cc1ccc(/C=N/NC(=O)c2cccs2)cc1[N+](=O)[O-]	inconclusive: 2.91 µM [activator, full curve]
CCN(CC(=O)Nc1ccc(C)c(F)c1)CC(=O)NC(C)C	inconclusive: 5.8 µM [falling, full curve]
Cc1ccccc1-n1c(SCC(=O)N/N=C/c2c(C)nn(-c3ccccc3)c2C)nc2ccccc2c1=O	inconclusive: 8.2 µM [falling, partial curve]
CCn1c(SCc2cccc(C)c2)nnc1-c1ccc(C)cc1	inconclusive: 32.6 µM [falling, single point]
COc1ccc(CNc2nc(C)cc(C)c2C#N)cc1	inconclusive: 14.6 µM [falling, single point]
O=C(Nc1noc2ccccc12)c1ccc(F)cc1	inconclusive: 2.31 µM [activator, partial curve]
CCCc1[nH]n(-c2ccc([N+](=O)[O-])cc2)c(=O)c1C=NCCc1ccc(OC)c(OC)c1	inconclusive: 2.91 µM [falling, full curve]
O=c1oc2ccccc2cc1-c1csc(Cc2nc(-c3ccc(Br)cc3)cs2)n1	active: 2.91 µM
Cc1cccc(C)c1NS(=O)(=O)c1ccc(NS(=O)(=O)c2ccc3c(c2)OCCO3)cc1	inactive
COc1cccc(C2Nc3ccccc3NC3=C2C(=O)CC(C)(C)C3)c1OC (configuration not stated)	inactive
CCCCCc1c2c(cc(O)c1C(=O)O)OC(=O)c1cc(C(=O)CCCC)c(OC)cc1O2	inactive
COc1ccc(COC(=O)c2cc(S(=O)(=O)N3CCCCC3)ccc2N2CCOCC2)cc1	inconclusive: 20.6 µM [falling, single point]
Cc1ccc(-c2nnc(Nc3ccccc3)c3ccccc23)cc1S(=O)(=O)NCc1nc2ccccc2[nH]1	inconclusive: 18.4 µM [falling, single point]
Cc1ccc(-n2c(C)cc(C(=O)CN3CCOCC3)c2C)cc1	inconclusive: 4.11 µM [activator, single point]
CN(C(=O)COC(=O)c1cccc(F)c1)c1ccccc1	inconclusive: 8.2 µM [activator, partial curve]
O=C(/C=C/c1ccco1)NC(=S)Nc1ccccn1	inconclusive: 23.1 µM [activator, single point]
COc1cccc(OC)c1C(=O)Nc1ccc2nc(C)c(C)nc2c1	inactive

Some of the entries so far, with bars between the fields:
Structure (SMILES) | Potency
Cc1ccc(-n2c(C)cc(C(=O)CN3CCOCC3)c2C)cc1 | inconclusive: 4.11 µM [activator, single point]
CN(C(=O)COC(=O)c1cccc(F)c1)c1ccccc1 | inconclusive: 8.2 µM [activator, partial curve]

The list continues:

Structure (SMILES)	Potency
Cn1nc(C(F)(F)F)c(C(=O)Nc2ccc(C(F)(F)F)cc2)c1Cl	inconclusive: 1.84 µM [falling, partial curve]
O=C(c1ccc(N2CCN(C(=O)c3ccc(F)cc3F)CC2)cc1)c1cccc(F)c1	inconclusive: 20.6 µM [falling, partial curve]
c1ccc(Cc2nnc(N3CCCCC3)c3ccccc23)cc1	active: 18.4 µM
CSc1ccccc1NC(=O)c1cc2ncc(Br)cn2n1	inconclusive: 29.1 µM [activator, single point]
Cc1c(CNC2CCCCC2)c(C(=O)O)c(C)n1Cc1ccc(F)cc1	inactive
COc1ccc2nc(NC(=O)CSc3nnc(C)n3N)sc2c1	inconclusive: 29.1 µM [activator, single point]
Cc1cc(C)nc(NS(=O)(=O)c2ccc(NC(=O)C3COc4ccccc4O3)cc2)n1 (configuration not stated)	inconclusive: 20.6 µM [falling, partial curve, poor fit]
N#Cc1ccc(CSc2nnc(NC(=O)c3ccc4ncsc4c3)s2)cc1	inconclusive: 2.06 µM [activator, partial curve, poor fit]
Nc1nc(-c2ccccc2)nn1C(=O)Cc1ccccc1	inconclusive: 16.4 µM [falling, partial curve, poor fit]
Cc1ccc(NC(=O)Cn2nnc(-c3ccccc3NC(=O)c3cccs3)n2)cc1	inconclusive: 1.64 µM [falling, partial curve, poor fit]
C1CCC(c2nn3c(-c4n[nH]c5c4CCC5)nnc3s2)CC1	inconclusive: 20.6 µM [falling, single point]
O=c1cc2[nH]c3ccccc3c(=O)n2nc1-c1ccccc1	inconclusive: 8.2 µM [activator, partial curve]
CCC(NC(=O)Nc1cc(OC)ccc1OC)c1c(-n2cccc2)sc2c1CCN(CC)C2 (configuration not stated)	inactive
Cc1nn(CC(=O)Nc2cc(F)ccc2F)c(=O)c2cccn12	inconclusive: 7.31 µM [activator, single point]
CC(C)(C)C(=O)NC(=S)Nc1ccccc1F	inconclusive: 14.1 µM [activator, single point]
CC(C)c1noc(-c2ccccc2OCC(=O)Nc2ccccc2[N+](=O)[O-])n1	inconclusive: 29.1 µM [falling, single point]
O=[N+]([O-])c1cc(/C=N/OCc2c(Cl)cccc2Cl)ccc1N1CCOCC1	inconclusive: 29.1 µM [falling, single point]
Cn1c(OCc2cccnc2)nc2c1c(=O)n(Cc1ccc(Br)cc1)c(=O)n2C	inconclusive: 20.6 µM [falling, single point]
COc1ccc(-c2csc(NC3OC(=O)c4ccccc43)n2)cc1 (configuration not stated)	inconclusive: 29.1 µM [falling, single point]
O=C1C2C3C=CC(C4CC34)C2C(=O)N1/N=C/c1c[nH]c2ccccc12 (configuration not stated)	inconclusive: 16.4 µM [activator, partial curve]
CCOc1ccc(-n2c(CC)nc3c(cnn3-c3ccc(Cl)cc3)c2=O)cc1	inconclusive: 32.6 µM [falling, single point]
